For at least one entry, the source does not settle the construct or the ends of the probe. At least one verdict rests on a figure or table, not on a statement of the authors. Where a protein sequence is shown, tags need not be part of it.
Tests used:
[1] = target: T1, GST-CTCF-ZF-wt (ZF1-11) (Mus musculus (cDNA of mESCs)) (UniProt Q61164); assay: GST pull-down, dot blot; settings: pull-down: 6-12 h with glutathione agarose, washed in PBS + 1% Triton X-100, recombinant protein, residues 260-583, protein details: N-terminal GST (pGEX-4T-2)
T1 sequence (looked up): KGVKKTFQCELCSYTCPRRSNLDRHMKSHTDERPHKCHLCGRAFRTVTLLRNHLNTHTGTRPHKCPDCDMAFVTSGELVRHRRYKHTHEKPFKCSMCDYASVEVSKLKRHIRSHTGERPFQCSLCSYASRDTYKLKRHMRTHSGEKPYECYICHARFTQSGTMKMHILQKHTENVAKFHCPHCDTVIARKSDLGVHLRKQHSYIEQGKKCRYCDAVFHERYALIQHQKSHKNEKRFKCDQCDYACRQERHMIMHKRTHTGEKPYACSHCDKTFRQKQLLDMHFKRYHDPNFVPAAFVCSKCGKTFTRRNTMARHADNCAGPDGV

[2] = target: T1, GST-CTCF-ZF-wt (ZF1-11) (Mus musculus (cDNA of mESCs)); assay: EMSA; settings: EMSA: Beyotime GS009 kit buffer, 10-20 min at RT, 5% native PAGE in ice-cold 0.5x TBE, recombinant protein, residues 260-583, protein details: N-terminal GST (pGEX-4T-2)

CTTTTTGGTGCCCTCTGCTGGCCACTGGAGGACCGAAAGTTTAG (double strand) [M1+M2 (mut) (mutant U+C motif)]
binding result ([1]; label: biotin (pull-down)): binds

CTTTTGGAACTGCAGTTTAG (double strand) [M2 (U motif)]
binding result ([2]; label: Cy5 or biotin on M2-F): binds | binding result ([1]; label: Cy5 or biotin on M2-F): binds

CTTTTTGGTGCCCTCTGCTGGCCAGTTTAG (double strand) [M1 (C motif)]
binding result ([2]; label: Cy5 or biotin on M1-F): binds | binding result ([1]; label: Cy5 or biotin on M1-F): binds

CTTTTTGGTGCCCTCTGCTGGCCACTGGAGGAACTGCAGTTTAG (double strand) [M1+M2 (U+C motif)]
binding result ([1]; label: biotin (pull-down, Cy5 version listed) on F strand): binds

— article PMC11217373
